No constants are given. Whether binding was seen depends on the method and setting. Some binding calls cover weakened binding; strength is not graded here.
What was measured:
[1] = target: T1, 인간 αvβ3 인테그린 ITGAVB3 (recombinant human αvβ3 integrin) (human) (UniProt P06756+P05106); assay: SPR (Reichert SR7500DC), αvβ3 integrin immobilised on CMDH chip
[2] = target: T1, 인간 αvβ3 인테그린 ITGAVB3 (recombinant human αvβ3 integrin) (human); assay: ELISA by the method of Example 5, ten VHH clones compared
[3] = target: T1, 인간 αvβ3 인테그린 ITGAVB3 (recombinant human αvβ3 integrin) (human); assay: phage ELISA, coated target, HRP anti-M13

Chains of the proteins cited; added tags and fusions are not shown. Lines headed by an entry give the natural chain unless they say otherwise; changes in a name come on top.
UniProt P06756: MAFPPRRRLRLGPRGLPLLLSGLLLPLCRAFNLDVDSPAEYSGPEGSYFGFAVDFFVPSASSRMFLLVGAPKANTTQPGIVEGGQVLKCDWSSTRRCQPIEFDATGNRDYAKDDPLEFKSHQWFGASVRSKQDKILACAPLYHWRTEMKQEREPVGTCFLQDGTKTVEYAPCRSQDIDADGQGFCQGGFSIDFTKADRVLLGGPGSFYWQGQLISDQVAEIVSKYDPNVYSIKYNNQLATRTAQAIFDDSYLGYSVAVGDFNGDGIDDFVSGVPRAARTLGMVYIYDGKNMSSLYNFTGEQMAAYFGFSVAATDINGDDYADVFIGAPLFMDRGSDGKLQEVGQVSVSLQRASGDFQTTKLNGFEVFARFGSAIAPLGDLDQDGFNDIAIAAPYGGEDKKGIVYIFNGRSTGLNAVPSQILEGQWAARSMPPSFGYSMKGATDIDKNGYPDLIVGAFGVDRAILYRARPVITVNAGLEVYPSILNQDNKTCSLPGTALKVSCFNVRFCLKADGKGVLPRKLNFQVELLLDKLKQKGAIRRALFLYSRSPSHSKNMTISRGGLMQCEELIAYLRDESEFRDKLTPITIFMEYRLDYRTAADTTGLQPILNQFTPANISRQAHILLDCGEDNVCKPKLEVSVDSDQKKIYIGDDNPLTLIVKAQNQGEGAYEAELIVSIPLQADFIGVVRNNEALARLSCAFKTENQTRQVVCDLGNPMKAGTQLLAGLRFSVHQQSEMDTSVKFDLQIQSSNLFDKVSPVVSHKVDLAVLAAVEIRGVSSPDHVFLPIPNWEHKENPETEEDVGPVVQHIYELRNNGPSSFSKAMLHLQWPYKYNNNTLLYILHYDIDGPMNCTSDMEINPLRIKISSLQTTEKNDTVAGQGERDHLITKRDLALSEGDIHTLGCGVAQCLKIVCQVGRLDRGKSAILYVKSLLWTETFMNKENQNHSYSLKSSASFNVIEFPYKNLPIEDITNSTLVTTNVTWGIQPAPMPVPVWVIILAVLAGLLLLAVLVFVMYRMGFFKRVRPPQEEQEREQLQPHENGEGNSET
UniProt P05106: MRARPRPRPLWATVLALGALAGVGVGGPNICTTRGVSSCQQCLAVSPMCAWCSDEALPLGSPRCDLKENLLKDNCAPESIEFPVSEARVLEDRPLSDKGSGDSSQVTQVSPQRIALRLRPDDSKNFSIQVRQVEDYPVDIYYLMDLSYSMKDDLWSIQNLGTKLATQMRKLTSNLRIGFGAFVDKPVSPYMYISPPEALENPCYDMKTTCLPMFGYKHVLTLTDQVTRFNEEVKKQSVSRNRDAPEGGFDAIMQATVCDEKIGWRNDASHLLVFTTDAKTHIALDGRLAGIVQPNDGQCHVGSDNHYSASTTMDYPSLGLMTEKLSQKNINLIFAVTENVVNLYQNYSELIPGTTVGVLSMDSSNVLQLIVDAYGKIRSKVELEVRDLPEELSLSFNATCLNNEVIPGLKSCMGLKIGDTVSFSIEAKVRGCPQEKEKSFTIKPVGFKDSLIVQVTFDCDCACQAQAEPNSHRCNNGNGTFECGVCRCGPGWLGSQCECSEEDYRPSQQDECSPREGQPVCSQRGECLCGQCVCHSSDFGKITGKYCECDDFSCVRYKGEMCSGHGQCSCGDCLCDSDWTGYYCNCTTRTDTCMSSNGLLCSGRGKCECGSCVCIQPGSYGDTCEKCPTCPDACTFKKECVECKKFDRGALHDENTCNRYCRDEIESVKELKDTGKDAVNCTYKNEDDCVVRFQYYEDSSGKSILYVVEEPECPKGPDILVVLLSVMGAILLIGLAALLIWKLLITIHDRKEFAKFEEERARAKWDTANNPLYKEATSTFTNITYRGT

| binding [1] | binding [2] | binding [3] | Binder |
| --- | --- | --- | --- |
| binds | binds | binds | 단일 도메인 항체 VHH-13 (VHH) VHH: HVQLVESGGGSVQPGESLRLSCVASGYTVSSSCMAWFRQAPGKEREVVATIVVTSDTTSTFYADSVKGRFTISPDNAKNTLNLQMNSLEPSDTAMYYCAADRKWNVCSRGYRYTPNWANQFTFWGQGTQVTVSS |
| binds | binds | binds | 단일 도메인 항체 VHH-25 (VHH) VHH: EVQLVESGGGSVQAGGSLRLSCVVSGYTCSVYDMIWYRQPPGKEREFVSLINSNGRTTYADSVKGRFTISQNNAKNTVYLQMNSLKPEDTAMYYCHAACYSPSRLNYWGQGTQVTVSS |
| binds | binds | binds | 단일 도메인 항체 VHH-22 (VHH) VHH: QVQLVESGGGSVQAGGSLRLSCVVSGYTCSVYDMIWYRQPPGKEREFVSLINSNGRTTYADSVKGRFTISQNNAKNTVYLQMNSLKPEDTAMYYCHAACYSPSRLNYWGQGTLVTVSS |

Reference: KR20190108308A
